{"source": "PubChem BioAssay AID504466", "about": "(National Center for Advancing Translational Sciences (NCATS), 2011)", "note": "The whole screen tested about 330,000 compounds, of which about 4,200 (1.3%) were called active. About 6% were inconclusive and are not listed. Calls come from the whole dose curve; as a rule, active = well fitted activation curve with a large enough effect; inconclusive = small, poorly fitted or top-dose-only effect; inactive = no such curve, though single readings can be large or run the other way. This is a selection; strong and weak results do not stand in their true shares. Entries without a call were filed so in the source.", "data": [{"test": "qHTS screen for small molecules that induce genotoxicity in human embryonic kidney (HEK293T) cells expressing luciferase-tagged ELG1; note: nearly all actives have a fitted effect of over 60% in size; note: potency is the fitted concentration of half-maximal effect; for activity change, positive = activation: % of control where 0% means no effect", "details": "HEK293T ELG1-luciferase reporter, luminescence, 16 h; activity change, positive = activation: at 46 µM (top of the series)", "source_text": "NIH Molecular Libraries Probe Production Network [MLPCN] NIH Chemical Genomics Center [NCGC] MLPCN Grant: 1 R03 MH092164-01 Assay Provider: Kyungjae Myung, NHGRI, NIH Keywords: MLPCN, qHTS, NCGC, genotoxicity, cancer Assay Overview: Cancer cells divide rapidly compared to normal cells in the body. During cell division, cancer cells need to duplicate their genome by DNA replication. The failure of genome duplication leads to cancer cells' death. Therefore, inhibitors of DNA replication could specifically kill cancer cells. Based on this concept, many chemotherapeutic agents were developed and have been used to treat cancer patients. However, there are a limited number of agents available in the clinical setting, and some of those that do exist have low efficacy and severe side effects. Therefore, if we can find the compounds that effectively block DNA replication either by directly damaging DNA or by inhibiting other cellular mechanisms, the options for cancer treatment will be broadened. With this in mind, we developed a quantitative high-throughput ELG1-luciferase reporter gene assay. Since the level of human ELG1 protein is enhanced in response to genetic stresses, increases in luciferase activity can be used to identify compounds that cause genetic stress.\nAssay Protocol Summary: For genotoxicity screening, 2,000 cells in 5 uL/well were dispensed into white, solid-bottom 1536-well plates using a solenoid-based dispenser. Following transfer of 23 nL compound or DMSO vehicle by a pin tool, the plates were incubated 16 hr at 37 °C and 5% CO2. 5 ul ONE-Glo (Promega) was then added to each plate and following a 30 min incubation at room temperature, luciferase activity was quantified on a ViewLux CCD-based plate reader.", "values": [{"molecule": "CC(C)CCOP(N)(=O)Oc1ccccc1Cl", "note": "(centres undefined)", "activity change, positive = activation": "13.4%"}, {"molecule": "C#C[C@]1(O)CC[C@H]2[C@@H]3CCC4=Cc5nc6nc7ccccc7n6cc5C[C@]4(C)[C@H]3CC[C@@]21C", "activity change, positive = activation": "inactive: -23.5%"}, {"molecule": "CCOC(=O)c1sc(=NC(=O)c2ccc(C)c(C)c2)n(C)c1C", "Potency": "active: 11.6 µM"}, {"molecule": "COC(=O)[C@H]1C[C@@H]1[C@H](NP(=O)(c1ccccc1)c1ccccc1)c1ccccc1", "activity change, positive = activation": "inactive: -0.359%"}]}]}
